Source: PubChem BioAssay AID504764 (Drosophila RNAi Screening Center, 2011)
The screen tested about 22,000 reagents; shown is a random part of those with a known target gene and a result. In the full data, 403 (1.9%) were called active. 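Unnormalised raw counts per well; ratio z-scores behind the hit calls and whether each hit raises or lowers signal are not deposited.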 Reagent sequences are not shown. Not stated in the record: the amount of reagent.

Test: 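Genome-wide screen for regulators of Notch-driven gene expression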 (primary screen)
System: Drosophila Kc167 cells
Reagent: long dsRNA against Drosophila genes
Duration: about 5 days (4 days dsRNA, then 24 h after transfection)
Challenge: transfection of constitutively active membrane-tethered Notch lacking the extracellular domain, read 24 h later
Detection: 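Firefly luciferase from an E(spl)m3 reporter with active Notch, plus control-promoter and uninduced reporter wells for normalisation; unnormalised counts, duplicate wells a and b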
Reading the numbers: induced reporter light, run 1, well a and induced reporter light, run 1, well b: higher = more light from the Notch target reporter with active Notch; control promoter light, run 1, well a and control promoter light, run 1, well b: higher = more light from the viral control promoter (cell number, transfection, viability); uninduced reporter light, run 1, well a: higher = more light from the Notch target reporter without active Notch
Call rule: 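Hit if the duplicate-averaged log2 ratio of induced to control-promoter light gives a plate-wise z beyond ±2, or induced to uninduced beyond ±1.8; weak-control or discordant-duplicate wells dropped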
Calls: active = modifier hit (raised or lowered Notch signal); inactive = not a hit

predicted target | dsRNA | induced reporter light, run 1, well a | induced reporter light, run 1, well b | control promoter light, run 1, well a | control promoter light, run 1, well b | uninduced reporter light, run 1, well a | activity call
CG4839 | DRSC02783 | 2.59e5 | 2.91e5 | 2.49e5 | 2.15e5 | 22380 | inactive
CG4839 | DRSC02784 | 1.14e5 | 1.21e5 | 88060 | 1.03e5 | 18100 | inactive
skd | DRSC11898 | 27755 | 22250 | 19465 | 20292 | 2580 | inactive
Mst84Db | DRSC12542 | 70890 | 82760 | 88430 | 68550 | 3795 | inactive
Mst84Db | DRSC12598 | 83520 | 83495 | 81830 | 71660 | 4815 | inactive
nrm | DRSC11597 | 2.14e5 | 2.01e5 | 3.46e5 | 3.33e5 | 16845 | inactive
nrm | DRSC11599 | 2.33e5 | 2.21e5 | 3.16e5 | 2.45e5 | 23410 | inactive
nrm | DRSC11897 | 87125 | 82560 | 94615 | 77625 | 7190 | inactive
TTLL4A | DRSC02528 | 2.16e5 | 3.00e5 | 2.10e5 | 2.08e5 | 19375 | inactive
CG34124 | DRSC00849 | 1.15e5 | 87585 | 1.44e5 | 1.28e5 | 9095 | inactive
CG44837 | DRSC10133 | 51080 | 45455 | 93920 | 78420 | 4595 | inactive
CG44837 | DRSC10558 | 1.56e5 | 1.18e5 | 1.52e5 | 1.40e5 | 9425 | inactive
CG14013 | DRSC02344 | 2.09e5 | 1.37e5 | 1.95e5 | 1.56e5 | 10040 | inactive
Smyd3 | DRSC17744 | 1.35e5 | 1.41e5 | 2.14e5 | 2.53e5 | 9195 | inactive
CG30350 | DRSC07690 | 1.98e5 | 1.69e5 | 2.10e5 | 2.14e5 | 17000 | inactive
PTPMT1 | DRSC14235 | 1.46e5 | 1.65e5 | 1.87e5 | 1.70e5 | 12175 | inactive
CG18094 | DRSC02655 | 76580 | 33940 | 43300 | 49940 | 3045 | inactive
CG15169 | DRSC02470 | 33880 | 31245 | 32975 | 51455 | 1770 | inactive
Ptp99A | DRSC13933 | 1.93e5 | 1.89e5 | 1.91e5 | 1.81e5 | 15195 | inactive
Ptp99A | DRSC13939 | 1.52e5 | 1.59e5 | 1.60e5 | 1.64e5 | 12140 | inactive
Ptp99A | DRSC14319 | 1.53e5 | 1.35e5 | 1.60e5 | 1.42e5 | 11540 | inactive
Ptp99A | DRSC14320 | 1.72e5 | 1.62e5 | 1.83e5 | 1.88e5 | 13460 | inactive
Ptp99A | DRSC16803 | 1.64e5 | 1.41e5 | 2.56e5 | 2.32e5 | 16040 | inactive
CG3588 | DRSC18473 | 95110 | 1.15e5 | 1.43e5 | 1.64e5 | 8140 | inactive
CG9004 | DRSC08617 | 1.30e5 | 1.47e5 | 2.31e5 | 1.68e5 | 7900 | inactive
Gug | DRSC11179 | 1.15e5 | 85175 | 1.10e5 | 1.01e5 | 6220 | inactive
CG6094 | DRSC02927 | 2.22e5 | 2.26e5 | 1.78e5 | 1.78e5 | 15232 | inactive
Mad | DRSC00759 | 1.86e5 | 1.44e5 | 1.91e5 | 1.49e5 | 11515 | inactive
mRpS2 | DRSC00550 | 2.56e5 | 2.36e5 | 2.72e5 | 2.51e5 | 13268 | inactive
Adat1 | DRSC03479 | 1.36e5 | 1.68e5 | 1.69e5 | 1.66e5 | 13040 | inactive
CG14227 | DRSC19584 | 1.58e5 | 1.58e5 | 2.33e5 | 2.93e5 | 12870 | inactive
me31B | DRSC03569 | 73770 | 1.00e5 | 90250 | 98675 | 7760 | inactive
CG16710 | DRSC15136 | 2.11e5 | 1.56e5 | 1.82e5 | 2.01e5 | 13250 | inactive
nmo | DRSC08902 | 2.21e5 | 2.18e5 | 2.48e5 | 2.67e5 | 14265 | inactive
nmo | DRSC11377 | 1.26e5 | 1.06e5 | 77790 | 42000 | 8025 | inactive
Obp83ef | DRSC12268 | 69460 | 62720 | 66200 | 51535 | 7240 | inactive
CG5070 | DRSC19932 | 60620 | 81045 | 89970 | 85825 | 9155 | inactive
CG13077 | DRSC02181 | 55680 | 38050 | 43685 | 54555 | 2368 | inactive
Naa30A | DRSC18583 | 64025 | 76690 | 35730 | 44405 | 7540 | inactive
pnt | DRSC17028 | 42285 | 58945 | 10282 | 11680 | 8420 | inactive
Adgf-D | DRSC16521 | 2.03e5 | 2.33e5 | 1.91e5 | 2.26e5 | 16260 | inactive
Picot | DRSC07508 | 1.39e5 | 1.35e5 | 2.58e5 | 2.40e5 | 9885 | inactive
AdipoR | DRSC15767 | 1.74e5 | 1.54e5 | 2.18e5 | 2.39e5 | 14960 | inactive
CG32767 | DRSC18386 | 1.58e5 | 1.39e5 | 2.75e5 | 3.50e5 | 11450 | inactive
CG14082 | DRSC10086 | 1.17e5 | 1.03e5 | 69910 | 70025 | 6340 | inactive
CG34205 | DRSC04149 | 42660 | 32880 | 32785 | 28245 | 2315 | inactive
CG34205 | DRSC22823 | – | – | – | – | – | active
CG12546 | DRSC11676 | 86720 | 1.16e5 | 1.25e5 | 97320 | 5075 | inactive
CG15765 | DRSC18071 | 28860 | 25615 | 24020 | 26540 | 7538 | inactive
CG15278 | DRSC02481 | 1.32e5 | 1.44e5 | 1.28e5 | 1.52e5 | 11175 | inactive
